The supplement of paper PMC4604168 (melanoma cell lines)
The other results are listed elsewhere or left out. Many values rest on one well or one pass, so single values are uncertain.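 The apoptosis fraction was the count of cleaved-PARP antibody-stained nuclei relative to all DNA-stained nuclei, imaged in 1,536-well plates. Screening doses were set so most cells survived, and baseline and induced cleaved-PARP levels vary greatly across cell lines.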

Key:
Assay in all cases: cleaved PARP positive nuclei fraction relative to DMSO control; melanoma cells; higher = more apoptosis
Conditions in all cases: library dose: low library concentration; 72 h
[1] = tested on: MZ2-MEL
[2] = tested on: MeWo
[3] = tested on: RPMI7951
[4] = tested on: RVH-421
[5] = tested on: SkMel28
[6] = tested on: SkMel2
[7] = tested on: SkMel30
[8] = tested on: UACC62
[9] = tested on: WM115
[10] = tested on: WM1716
[11] = tested on: WM1745
[12] = tested on: WM3526
[13] = tested on: WM3619
[14] = tested on: WM451Lu
[15] = tested on: SkMel5
[16] = tested on: UACC257

| SMILES | cleaved PARP positive nuclei fraction [1] [%] | cleaved PARP positive nuclei fraction [2] [%] | cleaved PARP positive nuclei fraction [3] [%] | cleaved PARP positive nuclei fraction [4] [%] | cleaved PARP positive nuclei fraction [5] [%] | cleaved PARP positive nuclei fraction [6] [%] | cleaved PARP positive nuclei fraction [7] [%] | cleaved PARP positive nuclei fraction [8] [%] | cleaved PARP positive nuclei fraction [9] [%] | cleaved PARP positive nuclei fraction [10] [%] | cleaved PARP positive nuclei fraction [11] [%] | cleaved PARP positive nuclei fraction [12] [%] | cleaved PARP positive nuclei fraction [13] [%] | cleaved PARP positive nuclei fraction [14] [%] | cleaved PARP positive nuclei fraction [15] [%] | cleaved PARP positive nuclei fraction [16] [%] |
| --- | --- | --- | --- | --- | --- | --- | --- | --- | --- | --- | --- | --- | --- | --- | --- | --- |
| Cn1c(=O)n(-c2ccc(C(C)(C)C#N)cc2)c2c3cc(-c4cnc5ccccc5c4)ccc3ncc21 + Cc1nc(Nc2ncc(C(=O)Nc3c(C)cccc3Cl)s2)cc(N2CCN(CCO)CC2)n1 [dasatanib] (first compound 0.004 µM, partner dose 0.004 µM) | 53.3 | 84.7 | 147 | 105 | 101 | 49.9 | 108 | 123 | 173 | 91.1 | 121 | 117 | 102 | 125 |  |  |
| Cc1cc(Nc2cc(N3CCN(C)CC3)nc(/C=C/c3ccccc3)n2)n[nH]1 + C=CCNC1=C2C[C@@H](C)C[C@H](OC)[C@H](O)[C@@H](C)/C=C(\C)[C@H](OC(N)=O)[C@@H](OC)/C=C\C=C(/C)C(=O)NC(=CC1=O)C2=O [Tanespimycin] (first compound 0.04 µM, partner dose 0.002 µM) | 92.8 | 96.1 | 143 | 107 | 80.8 | 97.6 | 106 | 48.8 | 114 | 280 | 93.1 | 169 | 85.5 | 77.3 |  |  |
| CN1CCN(c2ccc3nc(-c4c(N)c5c(F)cccc5[nH]c4=O)[nH]c3c2)CC1 [Dovitinib] + O=C(O)c1ccc2c(c1)nc(Nc1cccc(Cl)c1)c1ccncc12 [CX4945] (first compound 0.1 µM, partner dose 0.4 µM) | 241 | 185 | 202 | 105 | 535 | 36.6 | 317 | 88.9 | 170 | 62.4 | 115 | 154 | 99.8 | 47.7 |  |  |
| CNC(=O)c1cc(Oc2ccc(NC(=O)Nc3ccc(Cl)c(C(F)(F)F)c3)cc2)ccn1 [sorafenib] + Nc1cccc2c1CN(C1CCC(=O)NC1=O)C2=O [lenalidomide] (first compound 0.4 µM, partner dose 1 µM) | 41.5 | 145 | 64.9 | 73.6 | 210 | 127 | 33.2 | 49.2 | 128 | 168 | 110 | 143 | 98.4 | 114 |  |  |
| C[C@@H](Oc1cc(-c2cnn(C3CCNCC3)c2)cnc1N)c1c(Cl)ccc(F)c1Cl [Crizotinib] + Clc1ccc(Nc2nnc(Cc3ccncc3)c3ccccc23)cc1 [vatalanib] (first compound 0.2 µM, partner dose 2 µM) | 123 | 119 | 93.4 | 56.6 | 212 | 147 | 113 | 61.2 | 86.9 | 90.3 | 106 | 145 | 107 | 143 |  |  |
| CC(C)C[C@H](NC(=O)[C@H](Cc1ccccc1)NC(=O)c1cnccn1)B(O)O [Bortezomib] + CCCS(=O)(=O)Nc1ccc(F)c(C(=O)c2c[nH]c3ncc(Cl)cc23)c1F [PLX4720] (first compound 0.001 µM, partner dose 0.08 µM) | 326 | 366 | 215 | 297 | 82.9 | 135 | 99.9 | 349 | 114 | 882 | 163 | 63.4 | 630 | 50.5 |  |  |
| Nc1ccn([C@@H]2O[C@H](CO)[C@@H](O)C2(F)F)c(=O)n1 [gemcitabine] + OCc1c[nH]c2ccccc12 [Indole-3-carbinol] (first compound 0.0004 µM, partner dose 0.8 µM) | 61.5 | 106 | 299 | 138 | 63.1 | 99.7 | 92.9 | 36 | 103 | 39.3 | 133 | 23.2 | 173 | 46.8 |  |  |
| CO[C@H]1C[C@@H]2CC[C@@H](C)[C@@](O)(O2)C(=O)C(=O)N2CCCC[C@H]2C(=O)O[C@H]([C@H](C)C[C@@H]2CC[C@@H](OCCO)[C@H](OC)C2)CC(=O)[C@H](C)/C=C(\C)[C@@H](O)[C@@H](OC)C(=O)[C@H](C)C[C@H](C)/C=C/C=C/C=C/1C [everolimus] + O=C(O)C(=O)Nc1sc2c(c1C(=O)O)CCNC2 [TCS401] (first compound 0.02 µM, partner dose 1.66667 µM) | 205 | 60.8 | 129 | 70 | 298 |  | 103 | 502 | 248 | 81.8 | 111 | 113 | 164 | 66.4 | 78.5 | 225 |
| CS(=O)(=O)CCNCc1ccc(-c2ccc3ncnc(Nc4ccc(OCc5cccc(F)c5)c(Cl)c4)c3c2)o1 [lapatinib] + CCCS(=O)(=O)Nc1ccc(F)c(C(=O)c2c[nH]c3ncc(Cl)cc23)c1F [PLX4720] (first compound 0.8 µM, partner dose 0.08 µM) | 100 | 119 | 95.3 | 47.5 | 79.7 | 89.4 | 62.6 | 209 | 87.9 | 128 | 96.8 | 75.3 | 92.6 | 73.4 |  |  |

Quoted from the listing.
Under cleaved PARP positive nuclei fraction [10] [%], CO[C@H]1C[C@@H]2CC[C@@H](C)[C@@](O)(O2)C(=O)C(=O)N2CCCC[C@H]2C(=O)O[C@H]([C@H](C)C[C@@H]2CC[C@@H](OCCO)[C@H](OC)C2)CC(=O)[C@H](C)/C=C(\C)[C@@H](O)[C@@H](OC)C(=O)[C@H](C)C[C@H](C)/C=C/C=C/C=C/1C [everolimus] + O=C(O)C(=O)Nc1sc2c(c1C(=O)O)CCNC2 [TCS401] (first compound 0.02 µM, partner dose 1.66667 µM) has the entry 81.8
Under cleaved PARP positive nuclei fraction [9] [%], CNC(=O)c1cc(Oc2ccc(NC(=O)Nc3ccc(Cl)c(C(F)(F)F)c3)cc2)ccn1 [sorafenib] + Nc1cccc2c1CN(C1CCC(=O)NC1=O)C2=O [lenalidomide] (first compound 0.4 µM, partner dose 1 µM) has the entry 128
